According to the supplement of paper PMC10849652:
Some of the results follow.

By UniProt entry, the sequences of proteins in these tests, tags left out. Where a name states a change or a piece, a line headed by the entry shows the natural chain unless it says otherwise.
UniProt Q15631: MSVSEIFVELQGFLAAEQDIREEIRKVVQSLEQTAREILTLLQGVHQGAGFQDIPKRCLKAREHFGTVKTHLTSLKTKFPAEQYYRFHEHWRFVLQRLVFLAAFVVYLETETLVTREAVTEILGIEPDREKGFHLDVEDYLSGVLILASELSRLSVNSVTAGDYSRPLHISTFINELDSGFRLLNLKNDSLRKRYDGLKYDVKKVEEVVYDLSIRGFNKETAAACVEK
UniProt Q05086: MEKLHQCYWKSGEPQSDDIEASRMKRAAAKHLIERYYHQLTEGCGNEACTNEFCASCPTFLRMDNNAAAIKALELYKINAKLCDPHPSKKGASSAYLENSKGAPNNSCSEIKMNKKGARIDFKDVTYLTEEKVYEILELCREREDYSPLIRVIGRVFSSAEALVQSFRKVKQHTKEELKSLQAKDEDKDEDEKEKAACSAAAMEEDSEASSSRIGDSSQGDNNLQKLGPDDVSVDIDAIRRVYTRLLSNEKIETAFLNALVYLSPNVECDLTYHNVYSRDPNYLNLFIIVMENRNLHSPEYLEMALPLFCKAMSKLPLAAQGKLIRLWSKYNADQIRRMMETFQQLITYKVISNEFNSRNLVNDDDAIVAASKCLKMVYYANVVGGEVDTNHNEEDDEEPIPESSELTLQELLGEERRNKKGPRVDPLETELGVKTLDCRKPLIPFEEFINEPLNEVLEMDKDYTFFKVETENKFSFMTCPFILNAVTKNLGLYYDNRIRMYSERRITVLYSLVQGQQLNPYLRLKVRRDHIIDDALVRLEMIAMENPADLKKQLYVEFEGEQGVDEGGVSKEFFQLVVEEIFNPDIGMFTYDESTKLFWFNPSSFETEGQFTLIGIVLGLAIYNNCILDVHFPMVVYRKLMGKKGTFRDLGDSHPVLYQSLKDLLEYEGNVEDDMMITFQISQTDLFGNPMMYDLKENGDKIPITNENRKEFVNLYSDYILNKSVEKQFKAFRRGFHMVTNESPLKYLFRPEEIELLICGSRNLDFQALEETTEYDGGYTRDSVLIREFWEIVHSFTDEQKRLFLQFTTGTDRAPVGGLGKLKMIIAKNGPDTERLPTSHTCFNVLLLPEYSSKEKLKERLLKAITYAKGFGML
UniProt Q99614: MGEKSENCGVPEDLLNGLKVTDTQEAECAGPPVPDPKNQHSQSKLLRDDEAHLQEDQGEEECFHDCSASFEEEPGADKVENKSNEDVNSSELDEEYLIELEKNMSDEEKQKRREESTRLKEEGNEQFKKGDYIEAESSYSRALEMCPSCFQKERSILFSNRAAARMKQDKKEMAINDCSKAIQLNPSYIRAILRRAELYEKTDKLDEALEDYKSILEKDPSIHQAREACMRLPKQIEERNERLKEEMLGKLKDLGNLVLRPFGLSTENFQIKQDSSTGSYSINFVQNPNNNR
UniProt Q5JXB2: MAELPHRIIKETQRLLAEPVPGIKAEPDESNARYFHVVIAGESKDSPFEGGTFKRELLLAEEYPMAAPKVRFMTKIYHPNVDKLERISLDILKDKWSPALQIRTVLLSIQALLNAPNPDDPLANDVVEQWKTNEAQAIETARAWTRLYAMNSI
UniProt Q9H832: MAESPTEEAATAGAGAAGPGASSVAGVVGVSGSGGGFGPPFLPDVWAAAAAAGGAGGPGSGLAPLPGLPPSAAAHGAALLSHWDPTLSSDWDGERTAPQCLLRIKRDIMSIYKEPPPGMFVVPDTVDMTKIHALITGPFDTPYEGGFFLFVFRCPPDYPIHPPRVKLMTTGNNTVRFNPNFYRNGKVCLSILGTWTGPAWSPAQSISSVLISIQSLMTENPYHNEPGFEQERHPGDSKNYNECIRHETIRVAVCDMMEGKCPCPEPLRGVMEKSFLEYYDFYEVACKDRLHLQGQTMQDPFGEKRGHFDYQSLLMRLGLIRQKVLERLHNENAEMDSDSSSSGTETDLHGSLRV
UniProt Q969E8: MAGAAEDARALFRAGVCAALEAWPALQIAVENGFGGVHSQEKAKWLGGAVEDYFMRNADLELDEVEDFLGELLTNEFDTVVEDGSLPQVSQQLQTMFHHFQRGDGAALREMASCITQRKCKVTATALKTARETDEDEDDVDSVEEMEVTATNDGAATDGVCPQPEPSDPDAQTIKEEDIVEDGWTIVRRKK
UniProt Q9BSL1: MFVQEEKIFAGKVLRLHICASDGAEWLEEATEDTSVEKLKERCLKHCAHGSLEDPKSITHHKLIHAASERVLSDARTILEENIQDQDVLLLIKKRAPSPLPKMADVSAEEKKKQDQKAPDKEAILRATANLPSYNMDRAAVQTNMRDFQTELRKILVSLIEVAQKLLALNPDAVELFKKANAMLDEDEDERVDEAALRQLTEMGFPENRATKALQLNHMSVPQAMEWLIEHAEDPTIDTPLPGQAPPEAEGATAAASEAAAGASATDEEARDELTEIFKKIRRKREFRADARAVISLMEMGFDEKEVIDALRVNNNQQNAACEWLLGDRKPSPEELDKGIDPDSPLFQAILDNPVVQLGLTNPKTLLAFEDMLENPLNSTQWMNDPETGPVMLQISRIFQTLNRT
UniProt O15042: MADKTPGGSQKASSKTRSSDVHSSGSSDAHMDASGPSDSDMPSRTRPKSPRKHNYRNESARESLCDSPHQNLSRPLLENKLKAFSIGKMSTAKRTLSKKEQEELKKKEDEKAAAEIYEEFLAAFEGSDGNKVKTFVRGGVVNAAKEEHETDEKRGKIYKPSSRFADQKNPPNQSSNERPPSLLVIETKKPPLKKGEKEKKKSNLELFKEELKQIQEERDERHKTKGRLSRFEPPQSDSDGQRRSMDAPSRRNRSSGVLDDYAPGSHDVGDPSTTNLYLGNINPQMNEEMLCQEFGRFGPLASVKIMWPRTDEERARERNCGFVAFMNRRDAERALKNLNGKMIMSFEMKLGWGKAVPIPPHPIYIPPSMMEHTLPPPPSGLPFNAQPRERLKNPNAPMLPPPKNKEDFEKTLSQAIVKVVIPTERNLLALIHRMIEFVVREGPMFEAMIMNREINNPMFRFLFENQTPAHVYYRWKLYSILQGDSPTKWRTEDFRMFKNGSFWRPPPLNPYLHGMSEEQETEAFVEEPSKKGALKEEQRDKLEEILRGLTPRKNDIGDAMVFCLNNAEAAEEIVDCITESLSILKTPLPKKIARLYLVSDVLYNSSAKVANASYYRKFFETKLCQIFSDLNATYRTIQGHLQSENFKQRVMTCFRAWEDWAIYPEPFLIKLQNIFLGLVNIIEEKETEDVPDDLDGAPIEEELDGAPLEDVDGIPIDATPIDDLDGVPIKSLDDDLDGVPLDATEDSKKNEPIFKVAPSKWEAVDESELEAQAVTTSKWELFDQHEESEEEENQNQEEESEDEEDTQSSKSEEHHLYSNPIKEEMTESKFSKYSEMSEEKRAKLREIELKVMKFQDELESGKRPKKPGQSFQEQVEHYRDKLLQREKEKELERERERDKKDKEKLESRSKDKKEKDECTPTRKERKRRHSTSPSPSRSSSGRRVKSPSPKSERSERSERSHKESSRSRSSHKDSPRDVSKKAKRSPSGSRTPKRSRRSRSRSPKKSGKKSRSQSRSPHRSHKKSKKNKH
UniProt Q8N5M4: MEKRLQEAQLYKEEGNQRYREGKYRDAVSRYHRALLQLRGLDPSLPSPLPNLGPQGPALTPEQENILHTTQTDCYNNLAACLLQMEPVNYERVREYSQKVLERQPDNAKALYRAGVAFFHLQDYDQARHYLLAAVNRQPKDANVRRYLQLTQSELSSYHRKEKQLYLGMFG
UniProt P63279, whole entry, looked up: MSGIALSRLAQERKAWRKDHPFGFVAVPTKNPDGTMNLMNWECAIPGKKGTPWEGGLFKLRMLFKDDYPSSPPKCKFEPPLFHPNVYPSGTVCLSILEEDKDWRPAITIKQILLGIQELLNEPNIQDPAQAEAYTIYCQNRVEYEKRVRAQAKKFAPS
UniProt Q9UJT0: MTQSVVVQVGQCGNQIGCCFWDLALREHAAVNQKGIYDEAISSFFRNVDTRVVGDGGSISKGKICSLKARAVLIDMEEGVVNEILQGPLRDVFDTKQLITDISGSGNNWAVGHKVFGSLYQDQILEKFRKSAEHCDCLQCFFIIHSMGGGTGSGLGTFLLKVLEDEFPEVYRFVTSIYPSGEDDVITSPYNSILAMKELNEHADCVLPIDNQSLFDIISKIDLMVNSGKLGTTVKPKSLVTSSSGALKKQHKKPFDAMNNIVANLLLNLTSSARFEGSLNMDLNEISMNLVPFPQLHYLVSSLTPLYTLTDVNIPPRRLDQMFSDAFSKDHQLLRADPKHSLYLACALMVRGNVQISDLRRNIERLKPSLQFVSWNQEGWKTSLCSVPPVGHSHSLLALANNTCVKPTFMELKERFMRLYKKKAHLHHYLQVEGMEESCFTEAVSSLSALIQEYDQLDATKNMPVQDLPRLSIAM
UniProt Q9BSJ2, whole entry, looked up: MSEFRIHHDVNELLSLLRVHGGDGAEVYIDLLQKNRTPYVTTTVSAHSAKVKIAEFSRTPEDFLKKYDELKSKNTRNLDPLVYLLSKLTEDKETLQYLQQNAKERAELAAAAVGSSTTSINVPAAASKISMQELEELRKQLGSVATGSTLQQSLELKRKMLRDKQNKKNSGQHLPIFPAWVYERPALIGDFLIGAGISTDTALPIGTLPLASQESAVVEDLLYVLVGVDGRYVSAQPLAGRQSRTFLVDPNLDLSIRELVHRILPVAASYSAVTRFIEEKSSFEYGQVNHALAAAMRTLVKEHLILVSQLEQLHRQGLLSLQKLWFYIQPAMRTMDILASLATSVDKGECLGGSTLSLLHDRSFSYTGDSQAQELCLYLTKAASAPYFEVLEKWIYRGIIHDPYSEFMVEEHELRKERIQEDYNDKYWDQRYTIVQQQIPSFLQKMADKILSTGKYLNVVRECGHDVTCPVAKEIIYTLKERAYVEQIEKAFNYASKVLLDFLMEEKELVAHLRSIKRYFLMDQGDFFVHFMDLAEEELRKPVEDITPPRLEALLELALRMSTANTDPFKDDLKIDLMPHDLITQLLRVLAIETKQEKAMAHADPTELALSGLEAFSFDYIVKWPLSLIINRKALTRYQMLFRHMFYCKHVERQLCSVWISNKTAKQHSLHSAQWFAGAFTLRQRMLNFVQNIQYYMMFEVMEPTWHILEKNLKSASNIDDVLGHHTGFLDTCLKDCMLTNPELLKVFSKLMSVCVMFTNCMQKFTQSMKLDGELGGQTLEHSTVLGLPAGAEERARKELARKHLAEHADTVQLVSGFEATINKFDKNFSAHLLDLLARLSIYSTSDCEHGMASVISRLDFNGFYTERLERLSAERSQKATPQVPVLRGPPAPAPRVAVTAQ
UniProt Q9C0C9: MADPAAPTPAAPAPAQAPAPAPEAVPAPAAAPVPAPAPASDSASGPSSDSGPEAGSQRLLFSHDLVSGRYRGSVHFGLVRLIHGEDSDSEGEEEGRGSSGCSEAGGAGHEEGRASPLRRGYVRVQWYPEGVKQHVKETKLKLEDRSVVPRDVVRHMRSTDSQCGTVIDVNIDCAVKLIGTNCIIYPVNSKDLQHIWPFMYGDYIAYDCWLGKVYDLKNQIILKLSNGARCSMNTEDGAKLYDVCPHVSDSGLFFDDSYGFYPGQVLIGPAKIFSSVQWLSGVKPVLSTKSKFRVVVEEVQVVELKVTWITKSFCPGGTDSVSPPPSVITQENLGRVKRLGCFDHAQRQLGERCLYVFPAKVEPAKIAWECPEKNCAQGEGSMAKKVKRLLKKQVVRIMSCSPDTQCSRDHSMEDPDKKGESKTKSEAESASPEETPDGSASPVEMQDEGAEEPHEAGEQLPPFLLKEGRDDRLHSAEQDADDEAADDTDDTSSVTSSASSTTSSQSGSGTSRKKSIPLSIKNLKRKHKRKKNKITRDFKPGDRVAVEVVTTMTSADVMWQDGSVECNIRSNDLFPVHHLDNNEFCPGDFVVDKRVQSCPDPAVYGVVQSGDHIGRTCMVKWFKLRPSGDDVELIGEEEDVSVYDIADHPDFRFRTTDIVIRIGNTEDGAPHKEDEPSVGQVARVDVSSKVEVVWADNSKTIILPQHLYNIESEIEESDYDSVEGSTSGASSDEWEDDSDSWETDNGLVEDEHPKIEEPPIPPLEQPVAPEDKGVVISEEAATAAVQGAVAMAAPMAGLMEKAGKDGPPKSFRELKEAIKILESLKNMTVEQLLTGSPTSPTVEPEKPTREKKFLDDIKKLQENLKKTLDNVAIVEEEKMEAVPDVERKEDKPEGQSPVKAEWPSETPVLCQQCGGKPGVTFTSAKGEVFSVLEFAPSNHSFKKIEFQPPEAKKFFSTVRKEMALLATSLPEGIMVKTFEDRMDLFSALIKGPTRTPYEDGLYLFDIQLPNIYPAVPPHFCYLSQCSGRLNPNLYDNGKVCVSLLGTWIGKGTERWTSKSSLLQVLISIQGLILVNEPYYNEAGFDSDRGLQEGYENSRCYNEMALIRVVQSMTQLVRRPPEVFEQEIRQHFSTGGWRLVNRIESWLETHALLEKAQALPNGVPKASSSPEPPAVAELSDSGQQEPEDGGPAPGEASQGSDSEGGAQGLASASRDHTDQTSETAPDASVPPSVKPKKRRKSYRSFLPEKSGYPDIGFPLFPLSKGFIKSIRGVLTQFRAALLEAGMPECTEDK

Experiments:
Test in all cases: log2 fold change, soluble protein after heating vs DMSO (PISA); higher = thermal stabilisation; K562 cells, 10 uM, 30 min; active = over 0.2 and 3.5 SD of the protein, either way, in both replicates (recomputed)
[1] = compound: CC1=C(C=C(C=C1)NC(=O)C2=CC(=CC=C2)C(C)(C)C#N)NC3=CC4=C(C=C3)N=CN(C4=O)C
Outline: (§1)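 Soluble protein was quantified by TMTpro 16plex LC-MS/MS after channel sums were equalised. It was obtained as the supernatant after 21,000xg for 90 min from pooled aliquots of K562 cells (2×10^6 cells/mL, 10 μM compound, 30 min) heated for 3 min across 48°C-58°C and extracted in PBS with 0.5% NP-40 at 4°C. Thermal stability values are relative to control samples and come from duplicates. They are given as log2 fold changes.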

[2] = compound: CC1=C(C=C(C=C1)NC(=O)C2=CC(=CC=C2)N(C)C)NC(=O)C3=CC=C(C=C3)O
Outline: as §1

[3] = compound: CC1=CC=C(C=C1)SC2=C3C=C(SC3=CN=C2)C(=O)N
Outline: as §1

[4] = compound: CC1=NC(=CC=C1)C2=C(N=C(N2)C(C)(C)C)C3=CC4=NC=CN=C4C=C3
Outline: as §1

Nexturastat A = compound: CCCCN(Cc1ccc(C(=O)NO)cc1)C(=O)Nc1ccccc1 [Nexturastat A]
Outline: as §1

vemurafenib = compound: CCCS(=O)(=O)Nc1ccc(F)c(C(=O)c2c[nH]c3ncc(-c4ccc(Cl)cc4)cc23)c1F [vemurafenib]
Outline: as §1

[5] = compound: CCCS(=O)(=O)Nc1ccc(F)c(C(=O)c2c[nH]c3ncc(Cl)cc23)c1F
Outline: as §1

[6] = compound: CCCc1cc(C)[nH]c(=O)c1CNC(=O)c1cc(-c2ccnc(N3CCN(C)CC3)c2)cc2c1cnn2C(C)C
Outline: as §1

givinostat = compound: CCN(CC)Cc1ccc2cc(COC(=O)Nc3ccc(C(=O)NO)cc3)ccc2c1 [givinostat]
Outline: as §1

barasertib = compound: CCN(CCCOc1ccc2c(Nc3cc(CC(=O)Nc4cccc(F)c4)[nH]n3)ncnc2c1)CCOP(=O)(O)O [barasertib]
Outline: as §1

[7] = compound: CC[C@@H]1C(=O)N(C)c2cnc(Nc3ccc(C(=O)NC4CCN(C)CC4)cc3OC)nc2N1C1CCCC1
Outline: as §1

volasertib = compound: CC[C@@H]1C(=O)N(C)c2cnc(Nc3ccc(C(=O)N[C@H]4CC[C@H](N5CCN(CC6CC6)CC5)CC4)cc3OC)nc2N1C(C)C [volasertib]
Outline: as §1

[8] = compound: CC[C@H](C)N1C=C(C2=C(C=C(C=C21)C3=CN=C(C=C3)N4CCNCC4)C(=O)NCC5=C(C=C(NC5=O)C)C)C
Outline: as §1

epoxomicin = compound: CC[C@H](C)[C@@H](C(=O)N[C@@H]([C@@H](C)O)C(=O)N[C@@H](CC(C)C)C(=O)[C@]1(CO1)C)NC(=O)[C@H]([C@@H](C)CC)N(C)C(=O)C [epoxomicin]
Outline: as §1

[9] = compound: CCn1c(C(=O)N(C2CC2)C2CC2)cc2c3c(ncn3C)c(Nc3cc(C)n(C)n3)nc21
Outline: as §1

[10] = compound: CCn1cc(-c2ccnc3[nH]c(-c4cccc(CN(C)C)c4)cc23)c(-c2ccc(NC(=O)N(C)C)cc2)n1
Outline: as §1

[11] = compound: CN(C)CC(=O)Nc1ccc2[nH]c(=O)c3ccccc3c2c1
Outline: as §1

rosiglitazone = compound: CN(CCOC1=CC=C(C=C1)C[C@H]2C(=O)NC(=O)S2)C3=CC=CC=N3 (racemic) [rosiglitazone]
Outline: as §1

[12] = compound: CN1C2=C(C3=C1C(=O)N(N=C3)CC4=CC(=CC=C4)N)SC(=C2)S(=O)C
Outline: as §1

[13] = compound: CN1CCC(CNc2ccc3ncc(-c4cccc(OC(F)(F)F)c4)n3n2)CC1
Outline: as §1

Measured: log2 fold change

TWSG1 (UniProt Q9GZX9)
inactive: [1] -0.037 | [2] -0.091 | [3] 0.034 | [4] -0.082 | Nexturastat A -0.166 | vemurafenib -0.004 | [5] -0.04 | [6] -0.002 | givinostat -0.182 | barasertib 0 | [7] 0.049 | volasertib 0.068 | [8] -0.023 | epoxomicin 0.013 | [9] 0.006 | [10] -0.042 | [11] -0.029 | rosiglitazone 0.008 | [12] -0.011 | [13] 0.047

TSN (UniProt Q15631)
inactive: [1] 0.058 | [2] -0.02 | [3] 0.053 | [4] 0.032 | Nexturastat A -0.086 | vemurafenib 0.099 | [5] 0.054 | [6] 0.087 | givinostat -0.01 | barasertib 0.001 | [7] 0.04 | volasertib -0.014 | [8] -0.042 | epoxomicin -0.032 | [9] -0.028 | [10] -0.033 | [11] 0.025 | rosiglitazone 0.011 | [12] -0.108 | [13] 0.03

TWF1 (UniProt Q12792)
inactive: [1] 0.108 | [2] -0.045 | [3] 0.012 | [4] 0.051 | Nexturastat A -0.046 | vemurafenib 0.021 | [5] 0.019 | [6] 0.041 | givinostat -0.004 | barasertib 0.03 | [7] 0.019 | volasertib 0.052 | [8] 0.033 | epoxomicin -0.013 | [9] 0.037 | [10] -0.044 | [11] -0.07 | rosiglitazone 0.014 | [12] 0.037 | [13] 0.041

UBE3A (UniProt Q05086)
inactive: [1] -0.004 | [2] 0 | [3] 0.025 | [4] 0.022 | Nexturastat A -0.005 | vemurafenib 0.012 | [5] 0.041 | [6] -0.004 | givinostat 0.016 | barasertib 0.02 | [7] -0.016 | volasertib -0.045 | [8] 0.01 | epoxomicin 0.027 | [9] -0.008 | [10] -0.049 | [11] -0.019 | rosiglitazone 0.008 | [12] -0.072 | [13] -0.016

TTC1 (UniProt Q99614)
inactive: [1] -0.047 | [2] 0.003 | [3] 0.004 | [4] 0.009 | Nexturastat A -0.052 | vemurafenib -0.018 | [5] -0.033 | [6] -0.047 | givinostat -0.081 | barasertib -0.018 | [7] -0.017 | volasertib 0.054 | [8] -0.039 | epoxomicin -0.033 | [9] 0.039 | [10] -0.006 | [11] -0.013 | rosiglitazone -0.02 | [12] -0.051 | [13] -0.014

TUBB2A (UniProt Q13885)
inactive: [1] 0.024 | [2] 0.021 | [3] 0.024 | [4] 0.029 | Nexturastat A -0.048 | vemurafenib -0.067 | [5] -0.009 | [6] -0.027 | givinostat -0.038 | barasertib 0.001 | [7] -0.025 | volasertib 0.065 | [8] -0.015 | epoxomicin 0.059 | [9] -0.009 | [10] -0.067 | [11] -0.054 | rosiglitazone 0.011 | [12] -0.046 | [13] -0.141

UBE2NL (UniProt Q5JXB2)
inactive: [1] 0.036 | [2] -0.017 | [3] 0.09 | [4] 0.007 | Nexturastat A -0.028 | vemurafenib 0.039 | [5] -0.003 | [6] 0.013 | givinostat -0.021 | barasertib 0.024 | [7] -0.038 | volasertib 0.102 | [8] 0.033 | epoxomicin 0.11 | [9] 0.052 | [10] -0.022 | [11] -0.001 | rosiglitazone 0.022 | [12] -0.068 | [13] 0.009

UBE2Z (UniProt Q9H832)
inactive: [1] 0.003 | [2] 0.002 | [3] 0.001 | [4] -0.002 | Nexturastat A -0.05 | vemurafenib 0.009 | [5] 0.052 | [6] -0.012 | givinostat 0.024 | barasertib 0.026 | [7] -0.014 | volasertib -0.027 | [8] 0.012 | epoxomicin 0.052 | [9] 0 | [10] -0.03 | [11] 0.018 | rosiglitazone 0.018 | [12] -0.044 | [13] 0.022

TSR2 (UniProt Q969E8)
inactive: [1] -0.162 | [2] 0.016 | [3] -0.009 | [4] 0.111 | Nexturastat A -0.128 | vemurafenib 0.039 | [5] 0.073 | [6] 0.074 | givinostat -0.008 | barasertib -0.006 | [7] -0.098 | volasertib -0.213 | [8] 0.025 | epoxomicin -0.027 | [9] 0.012 | [10] 0.022 | [11] 0.059 | rosiglitazone 0.016 | [12] -0.039 | [13] -0.056

UBAC1 (UniProt Q9BSL1)
inactive: [1] -0.003 | [2] -0.01 | [3] 0.005 | [4] 0.035 | Nexturastat A -0.024 | vemurafenib 0.032 | [5] 0.04 | [6] 0.032 | givinostat 0.032 | barasertib 0.019 | [7] -0.034 | volasertib -0.167 | [8] 0.025 | epoxomicin 0.118 | [9] -0.009 | [10] -0.041 | [11] 0.009 | rosiglitazone 0.034 | [12] -0.061 | [13] 0.034

U2SURP (UniProt O15042)
inactive: [1] 0.046 | [2] -0.127 | [3] -0.015 | [4] 0.009 | Nexturastat A 0.157 | vemurafenib 0.112 | [5] 0.078 | [6] 0.079 | givinostat 0.166 | barasertib 0.013 | [7] -0.114 | volasertib -0.356 | [8] 0.133 | epoxomicin 0.019 | [9] -0.092 | [10] 0.061 | [11] 0.076 | rosiglitazone -0.015 | [12] 0.09 | [13] -0.073

TTC9C (UniProt Q8N5M4)
inactive: [1] 0.018 | [2] -0.054 | [3] 0.024 | [4] 0.07 | Nexturastat A 0.012 | vemurafenib 0.131 | [5] 0.031 | [6] -0.001 | givinostat 0.053 | barasertib -0.039 | [7] -0.047 | volasertib -0.156 | [8] 0.031 | epoxomicin -0.011 | [9] -0.011 | [10] -0.092 | [11] 0.065 | rosiglitazone 0.048 | [12] -0.038 | [13] -0.024

Fetched one by one from the list above (2):
TSR2 (UniProt Q969E8)
inactive: [1] -0.162 | [2] 0.016 | [3] -0.009 | [4] 0.111 | Nexturastat A -0.128 | vemurafenib 0.039 | [5] 0.073 | [6] 0.074 | givinostat -0.008 | barasertib -0.006 | [7] -0.098 | volasertib -0.213 | [8] 0.025 | epoxomicin -0.027 | [9] 0.012 | [10] 0.022 | [11] 0.059 | rosiglitazone 0.016 | [12] -0.039 | [13] -0.056

UBE2Z (UniProt Q9H832)
inactive: [1] 0.003 | [2] 0.002 | [3] 0.001 | [4] -0.002 | Nexturastat A -0.05 | vemurafenib 0.009 | [5] 0.052 | [6] -0.012 | givinostat 0.024 | barasertib 0.026 | [7] -0.014 | volasertib -0.027 | [8] 0.012 | epoxomicin 0.052 | [9] 0 | [10] -0.03 | [11] 0.018 | rosiglitazone 0.018 | [12] -0.044 | [13] 0.022

(further entries)

UBE2I (UniProt P63279)
inactive: [1] -0.014 | [2] -0.007 | [3] -0.004 | [4] 0.018 | Nexturastat A 0.011 | vemurafenib 0.044 | [5] -0.066 | [6] -0.027 | givinostat 0.006 | barasertib 0.022 | [7] -0.083 | volasertib -0.01 | [8] 0.053 | epoxomicin 0.04 | [9] 0.028 | [10] -0.026 | [11] -0.008 | rosiglitazone 0.022 | [12] -0.047 | [13] -0.07

TUBE1 (UniProt Q9UJT0)
inactive: [1] 0.007 | [2] 0.032 | [3] 0.004 | [4] -0.031 | Nexturastat A -0.139 | vemurafenib 0.016 | [5] -0.011 | [6] -0.023 | givinostat -0.009 | barasertib -0.03 | [7] 0.091 | volasertib 0.099 | [8] -0.008 | epoxomicin 0.104 | [9] -0.009 | [10] 0.062 | [11] 0.028 | rosiglitazone -0.067 | [12] -0.015 | [13] -0.039

TUBGCP2 isoform 4 (UniProt Q9BSJ2)
inactive: [1] 0.024 | [2] -0.044 | [3] 0.003 | [4] -0.06 | Nexturastat A 0.242 | vemurafenib -0.033 | [5] -0.025 | [6] 0.155 | givinostat 0.202 | barasertib 0.176 | [7] 0 | volasertib -0.138 | [8] 0.272 | epoxomicin 0.039 | [9] -0.088 | [10] -0.008 | [11] -0.005 | rosiglitazone -0.025 | [12] 0.153 | [13] -0.114

UBE2O (UniProt Q9C0C9)
inactive: [1] 0.004 | [2] -0.013 | [3] 0.007 | [4] -0.021 | Nexturastat A 0.231 | vemurafenib -0.031 | [5] 0.018 | [6] 0.027 | givinostat 0.139 | barasertib 0.03 | [7] -0.01 | volasertib -0.045 | [8] 0.016 | epoxomicin -0.005 | [9] -0.109 | [10] -0.043 | [11] 0.018 | rosiglitazone 0.032 | [12] -0.041 | [13] -0.146
